PubChem BioAssay AID1487 (National Center for Advancing Translational Sciences (NCATS), 2009)
Some of the results follow. The main result of the screen is listed elsewhere. These columns were measured beside it and carry no call. Most of these compounds were active or inconclusive in the main read-out, so they are no random draw. Potencies come from curve fits of mixed quality, noted in brackets.

Test: qHTS Assay for Modulators of Lamin A Splicing
Settings: HeLa LMNA splicing GFP/RFP minigene ratio, 48 h
Outline: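 S3 HeLa stable clones carrying a lamin A-EGFP splicing minigene plus DsRed2 were seeded at 600 cells/well in Opti-MEM with 2% FBS, pin-dosed and incubated 48 h at 37°C. Acumen cytometry (488 nm) gave the GFP/RFP total-intensity ratio.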

[1] = measured here: GFP splicing reporter channel
[2] = measured here: RFP viability control channel

Row | SMILES | AC50 [1] | AC50 [2]
1 | O=C(c1cccnc1)N1N=C(C2CC2)CC1(O)C(F)(F)F (stereo unspecified) | 35.5 µM [falling, single point] | 
2 | O=S(=O)(c1ccc(Br)cc1)c1cnc2ccccc2n1 | 35.5 µM [falling, partial curve, poor fit] | 31.6 µM [falling, single point]
3 | Cc1ccc(NC2=NC3(CCCC3)N=C(N)N2)c(C)c1 |  | 12.6 µM [rising, single point]
4 | COc1cc(/C=N/O)cc(Br)c1OCc1ccc(Cl)cc1 | 22.4 µM [falling, single point] | 35.5 µM [falling, single point]
5 | Cc1ccc(CNC(=O)c2cnc(N3CCCC3)nc2C)cc1 | 0.00447 µM [rising, full curve, poor fit] | 
6 | CCCCN(CC)Cc1ccc(CNC(=O)Nc2ccc(Cl)cc2)o1 |  | 5.62 µM [rising, single point]
7 | CN(C(=O)CSc1nc2ccc(NC(=O)c3ccco3)cc2s1)c1ccccc1 | 0.00447 µM [rising, full curve, poor fit] | 
8 | CCn1c(=O)cc(OCC(=O)NCCCN2CCN(c3cccc(Cl)c3)CC2)c2ccccc21 |  | 22.4 µM [rising, single point]
9 | CN1CCN(CCCNC(=O)c2cc3c(-c4ccc(Cl)cc4)nn(C)c3s2)CC1 | 35.5 µM [rising, single point] | 35.5 µM [rising, single point]
10 | O=C(C[n+]1cccc(CNC(=O)c2ccc(OC(F)F)cc2)c1)c1ccccc1 | 2 µM [rising, full curve, poor fit] | 7.08 µM [rising, partial curve]
11 | CCc1ccc(C2=CC(c3cccc(OC)c3OC)n3c(nc4ccccc43)N2)cc1 (stereo unspecified) | 0.0126 µM [rising, full curve, poor fit] | 
12 | Nc1c(-c2cccs2)cnn1-c1nc(-c2ccc(Cl)cc2Cl)cs1 | 14.1 µM [falling, partial curve] | 14.1 µM [falling, partial curve, poor fit]
13 | O=C(Nc1ccc(Cl)cc1)c1cccs1 | 14.1 µM [rising, single point] | 31.6 µM [rising, single point]
14 | Cc1ccccc1Nc1nnc(SCC(=O)Nc2ccccc2[N+](=O)[O-])s1 |  | 31.6 µM [rising, single point]
15 | Cc1ccc(N2CCN(S(=O)(=O)c3nnc(NC(=O)c4cccc(F)c4)s3)CC2)cc1 | 0.2 µM [rising, full curve, poor fit] | 0.355 µM [rising, full curve, poor fit]
16 | COc1cccc(NC(=O)C2CCN(Cc3cnn(-c4ccccc4)c3-n3cccc3)CC2)c1 |  | 12.6 µM [rising, partial curve]
17 | COc1ccc(-c2nc(-c3ccccc3)c(-c3cccs3)[nH]2)cc1OC | 20 µM [rising, single point] | 17.8 µM [rising, single point]
18 | CCCCCOC(=O)C1=C(C)N(C)C(=O)NC1c1cc(Br)c(O)c(OC)c1 (stereo unspecified) |  | 28.2 µM [rising, single point]
19 | N#Cc1nc(-c2cccs2)oc1N1CCN(Cc2ccccc2)CC1 |  | 20 µM [rising, single point]
20 | N#CCCN1CCN(C(=S)c2ccc(-c3ccc(Cl)c(Cl)c3)o2)CC1 | 12.6 µM [rising, single point] | 
21 | CC(=O)OC1CCC2(C)C(COc3ccc4ccc(=O)oc4c3)C(C)(O)CCC2C1(C)C (stereo unspecified) |  | 22.4 µM [rising, single point]
22 | COc1ccc([N+](=O)[O-])cc1-n1cnnn1 | 0.00501 µM [rising, full curve] | 0.00501 µM [rising, full curve, poor fit]
23 | N#CC(C#N)=C1C=CC=CN1/C(=C\c1ccco1)C(=O)c1ccc(Cl)cc1 | 5.62 µM [falling, full curve] | 6.31 µM [falling, partial curve]
24 | CC(C)(C)C1CCc2onc(C(=O)Nc3cccc(O)c3)c2C1 (stereo unspecified) |  | 20 µM [rising, single point]
25 | Cc1ccc2nc(Cl)c(C3CC(c4cccs4)=NN3C(=O)CCC(=O)O)cc2c1 (stereo unspecified) |  | 3.16 µM [rising, full curve, poor fit]
26 | CCCN1CCN(CCCNC(=O)c2cc3c(=O)[nH]c4ccccc4c3s2)CC1 | 0.158 µM [falling, full curve, poor fit] | 
27 | COCC(=O)NCCc1nc2ccccc2[nH]1 |  | 0.02 µM [rising, full curve]
28 | CN(Cc1ccccc1)S(=O)(=O)c1ccc2[nH]cc(C(=O)NCC3CCCO3)c(=O)c2c1 (stereo unspecified) | 22.4 µM [rising, single point] | 

A draw from above in order of heavy-atom count, largest number first:
Row | SMILES | AC50 [1] | AC50 [2]
16 | COc1cccc(NC(=O)C2CCN(Cc3cnn(-c4ccccc4)c3-n3cccc3)CC2)c1 |  | 12.6 µM [rising, partial curve]
28 | CN(Cc1ccccc1)S(=O)(=O)c1ccc2[nH]cc(C(=O)NCC3CCCO3)c(=O)c2c1 (stereo unspecified) | 22.4 µM [rising, single point] | 
11 | CCc1ccc(C2=CC(c3cccc(OC)c3OC)n3c(nc4ccccc43)N2)cc1 (stereo unspecified) | 0.0126 µM [rising, full curve, poor fit] | 
9 | CN1CCN(CCCNC(=O)c2cc3c(-c4ccc(Cl)cc4)nn(C)c3s2)CC1 | 35.5 µM [rising, single point] | 35.5 µM [rising, single point]
18 | CCCCCOC(=O)C1=C(C)N(C)C(=O)NC1c1cc(Br)c(O)c(OC)c1 (stereo unspecified) |  | 28.2 µM [rising, single point]
17 | COc1ccc(-c2nc(-c3ccccc3)c(-c3cccs3)[nH]2)cc1OC | 20 µM [rising, single point] | 17.8 µM [rising, single point]
20 | N#CCCN1CCN(C(=S)c2ccc(-c3ccc(Cl)c(Cl)c3)o2)CC1 | 12.6 µM [rising, single point] | 
12 | Nc1c(-c2cccs2)cnn1-c1nc(-c2ccc(Cl)cc2Cl)cs1 | 14.1 µM [falling, partial curve] | 14.1 µM [falling, partial curve, poor fit]
24 | CC(C)(C)C1CCc2onc(C(=O)Nc3cccc(O)c3)c2C1 (stereo unspecified) |  | 20 µM [rising, single point]
4 | COc1cc(/C=N/O)cc(Br)c1OCc1ccc(Cl)cc1 | 22.4 µM [falling, single point] | 35.5 µM [falling, single point]
2 | O=S(=O)(c1ccc(Br)cc1)c1cnc2ccccc2n1 | 35.5 µM [falling, partial curve, poor fit] | 31.6 µM [falling, single point]
27 | COCC(=O)NCCc1nc2ccccc2[nH]1 |  | 0.02 µM [rising, full curve]
13 | O=C(Nc1ccc(Cl)cc1)c1cccs1 | 14.1 µM [rising, single point] | 31.6 µM [rising, single point]

More records.

Row | SMILES | AC50 [1] | AC50 [2]
29 | COc1ccc(CCNC(=O)c2cc(-c3ccc(C)cc3)nc3n[nH]c(-c4ccc(F)cc4)c23)cc1OC |  | 35.5 µM [falling, single point]
30 | CC1CCN(S(=O)(=O)c2ccc(C(=O)NCc3cccnc3)cc2)CC1 |  | 1.78 µM [falling, partial curve, poor fit]
31 | O=S(=O)(NC1CCCC1)c1cccc(S(=O)(=O)N2CCC(n3nnc4ccccc43)CC2)c1 | 11.2 µM [rising, single point] | 20 µM [rising, single point]
32 | c1ccc(Cn2ccnc2SCc2nnc(-c3ccccc3)o2)cc1 | 17.8 µM [rising, partial curve] | 15.8 µM [rising, single point]
33 | O=C(CCSCCc1ccccn1)Nc1ccccc1C(F)(F)F |  | 22.4 µM [rising, single point]
34 | Cc1ccc(NC(=O)c2ccc(OC(=S)N3CCOCC3)cc2)cc1 |  | 22.4 µM [falling, single point]
35 | Cc1ccc(-c2csc3nc[nH]c(=O)c23)cc1 | 0.0355 µM [falling, full curve, poor fit] | 
36 | CCOC(=O)C(C)Oc1cccc2c(=O)n(CC(=O)NCc3ccco3)ccc12 (stereo unspecified) |  | 1.58 µM [rising, partial curve]
37 | COc1cc(C(=O)N/N=C/c2cc([N+](=O)[O-])cs2)cc(OC)c1OC |  | 4.47 µM [rising, full curve]
38 | C#CCOC(=O)C[N+](C)(C)C/C=C/c1ccccc1 | 0.282 µM [rising, full curve, poor fit] | 
39 | Cc1ccc(Oc2ccc(S(=O)(=O)N3CCOCC3)cc2C(N)=O)c(-n2nc3ccccc3n2)c1 | 3.55 µM [falling, full curve] | 5.01 µM [falling, full curve]
40 | COCCCNc1oc(-c2ccc(COc3ccccc3C)o2)nc1C#N | 22.4 µM [rising, partial curve] | 28.2 µM [rising, single point]
41 | Cc1cc(C)nc(Sc2ccc([N+](=O)[O-])cc2[N+](=O)[O-])n1 | 35.5 µM [falling, single point] | 
42 | Cc1ccc(-c2noc(CCC(=O)NC3CCN(Cc4ccccc4)CC3)n2)cc1 | 10 µM [rising, partial curve, poor fit] | 
43 | O=C(CSc1nc2c([nH]c3ccccc32)c(=O)n1-c1ccccc1)Nc1ccccc1C(F)(F)F | 35.5 µM [falling, single point] | 35.5 µM [falling, single point]
44 | COC(=O)c1c(-c2cccc(OC)c2)csc1N | 14.1 µM [rising, single point] | 31.6 µM [rising, single point]
45 | CCOC(=O)C1C(=O)OC(C)(C)C1C(C)C(=O)c1ccc(C)cc1C (stereo unspecified) | 35.5 µM [falling, single point] | 35.5 µM [falling, partial curve, poor fit]
46 | NS(=O)(=O)c1ccc(NCc2ccccc2OCc2ccc(F)cc2)cc1 | 2.24 µM [rising, partial curve] | 2.51 µM [rising, full curve]
47 | Cc1ccc(OCC(O)Cn2c3ccccc3c3ccccc32)cc1 (stereo unspecified) | 35.5 µM [falling, single point] | 35.5 µM [falling, single point]
48 | Fc1ccc2nc(-c3ccccc3)nc(SCc3nnc(-c4ccccc4)o3)c2c1 | 5.62 µM [rising, single point] | 
49 | COc1ccc2c(c1)CC(C(=O)Nc1c(C)cc(C)cc1C)CO2 (stereo unspecified) |  | 14.1 µM [rising, single point]
50 | O=C(CSC1CC(=O)N(c2ccc(C(=O)O)cc2)C1=O)Nc1ccc(Cl)cc1 (stereo unspecified) | 0.00891 µM [rising, full curve] | 0.0126 µM [rising, full curve]
51 | CN1C(=O)C(c2nnc(Nc3cccc4ccccc34)s2)C2CC1(C)Oc1ccccc12 (stereo unspecified) | 22.4 µM [rising, single point] | 22.4 µM [rising, partial curve]
52 | O=C(NNC1=NS(=O)(=O)c2ccccc21)c1ccccc1Cl | 0.02 µM [rising, partial curve, poor fit] | 
53 | COc1cccc(NC(=O)CSC2=Nc3ccccc3C3=NC(CCC(=O)NC4CCCCC4)C(=O)N23)c1 (stereo unspecified) | 0.158 µM [falling, full curve, poor fit] | 
54 | COc1ccc(OC)c(Nc2nc(-c3sc(NC(=O)C(C)(C)C)nc3C)cs2)c1 |  | 14.1 µM [rising, single point]
55 | CCCCOc1ccc(C(=O)N/N=C/c2ccc(OCCN3CCCCC3)c(OC)c2)cc1 |  | 35.5 µM [rising, single point]
